Reference: patent publication US7230010B2, “1,2,4-triazole derivative, method for preparing the same, and pharmaceutical composition containing the same” (CJ Corp., priority 2002, dated 2007)
Some results were stated once for a whole list of compounds, not compound by compound.

Target: T1, COX-2 (Mus musculus, UniProt Q05769)
T1 construct: host or cells: RAW 264.7 cells, aspirin-pretreated, induced with interferon γ and LPS
T1 sequence (Q05769 18-604): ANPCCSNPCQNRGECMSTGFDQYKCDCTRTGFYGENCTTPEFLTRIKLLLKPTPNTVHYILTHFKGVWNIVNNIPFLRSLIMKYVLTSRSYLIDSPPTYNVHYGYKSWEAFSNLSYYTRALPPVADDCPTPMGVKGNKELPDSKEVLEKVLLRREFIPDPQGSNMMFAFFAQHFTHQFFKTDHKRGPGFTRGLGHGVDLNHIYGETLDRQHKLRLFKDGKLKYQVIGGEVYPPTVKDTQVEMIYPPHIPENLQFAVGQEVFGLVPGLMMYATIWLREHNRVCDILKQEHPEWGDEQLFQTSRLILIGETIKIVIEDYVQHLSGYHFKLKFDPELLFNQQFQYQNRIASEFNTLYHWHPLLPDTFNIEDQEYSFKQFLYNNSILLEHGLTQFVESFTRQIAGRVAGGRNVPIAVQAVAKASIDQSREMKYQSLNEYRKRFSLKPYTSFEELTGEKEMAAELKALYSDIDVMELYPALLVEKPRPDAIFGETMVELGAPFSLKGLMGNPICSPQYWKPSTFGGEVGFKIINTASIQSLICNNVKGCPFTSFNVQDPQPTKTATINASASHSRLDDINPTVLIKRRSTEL
Test: Assay for the COX-2 inhibitory activity using RAW 264.7 cell line
Format: cell-based
Conditions: for COX-2 inhibitory activities compared to the reference: 10 nM, compared with the reference Valdecoxib; for inhibition (%) ratios of COX-2 to COX-1: COX-2 at 10 nM vs COX-1 at 1 μM, compared with the reference, Valdecoxib
Experimental: Each well was treated with 250 μM of aspirin and incubated at 37° C. for 2 hours. After the culture media were replaced with new culture media, the new culture media were treated with a test compound (10 nM) and incubated for 30 minutes. Then, each well was treated with interferon γ (100 units/ml) and lipopolysaccharide (LPS, 100 ng/ml) and incubated for 18 hours. The culture media were transferred to other test tubes. The concentration of PGE2 was quantified by means of the EIA kit (Cayman Chemicals).
% Inhibition=(concentration of PGE2 in test compound-untreated sample−concentration of PGE2 in test compound-treated sample)/(concentration of PGE2 in test compound-untreated sample)×100

SMILES	COX-2 inhibitory activities compared to the reference	inhibition (%) ratios of COX-2 to COX-1
CS(=O)(=O)c1ccc(-n2nc(C(F)(F)F)nc2-c2ccc3ccccc3c2)cc1 [Example 10, 1-(4-methylsulfonylphenyl)-5-(naphthalene-2-yl)-3-trifluoromethyl-1H-1,2,4-triazole]	significantly higher than the reference	equal to or significantly higher than that in the reference, Valdecoxib
CS(=O)(=O)c1ccc(-n2nc(C(F)(F)F)nc2-c2cc3ccccc3o2)cc1 [Example 11, 5-(benzofuran-2-yl)-1-(4-methylsulfonylphenyl)-3-trifluoromethyl-1H-1,2,4-triazole]	significantly higher than the reference	equal to or significantly higher than that in the reference, Valdecoxib
CS(=O)(=O)c1ccc(-n2nc(C(F)(F)F)nc2-c2cc3ccccc3[nH]2)cc1 [Example 12, 2-[2-(4-methylsulfonylphenyl)-5-trifluoromethyl-2H-1,2,4-triazole-3-yl]-1H-indole]	significantly higher than the reference	equal to or significantly higher than that in the reference, Valdecoxib
Cn1c(-c2nc(C(F)(F)F)nn2-c2ccc(S(C)(=O)=O)cc2)cc2ccccc21 [Example 13, 1-methyl-2-[2-(4-methylsulfonylphenyl)-5-trifluoromethyl-2H-1,2,4-triazole-3-yl]-1H-indole]	significantly higher than the reference	equal to or significantly higher than that in the reference, Valdecoxib
Cn1cc(-c2nc(C(F)(F)F)nn2-c2ccc(S(C)(=O)=O)cc2)c2ccccc21 [Example 14, 1-methyl-3-[2-(4-methylsulfonylphenyl)-5-trifluoromethyl-2H-1,2,4-triazole-3-yl]-1H-indole]	significantly higher than the reference	equal to or significantly higher than that in the reference, Valdecoxib
CS(=O)(=O)c1ccc(-n2nc(C(F)(F)F)nc2-c2ccc3ccccc3n2)cc1 [Example 15, 2-[2-(4-methylsulfonylphenyl)-5-trifluoromethyl-2H-1,2,4-triazole-3-yl]quinoline]	significantly higher than the reference	equal to or significantly higher than that in the reference, Valdecoxib
NS(=O)(=O)c1ccc(-n2nc(C(F)(F)F)nc2-c2ccc3ccccc3c2)cc1 [Example 16, 4-[5-(naphthalene-2-yl)-3-trifluoromethyl-1,2,4-triazole-1-yl]benzenesulfonamide]	significantly higher than the reference	equal to or significantly higher than that in the reference, Valdecoxib
CS(=O)(=O)c1ccc(-n2nc(C(F)(F)F)nc2-c2ccc3ccccc3c2)nc1 [Example 17, 5-methanesulfonyl-2-[5-(naphthalene-2-yl)-3-trifluoromethyl-1,2,4-triazole-1-yl]pyridine]	significantly higher than the reference	equal to or significantly higher than that in the reference, Valdecoxib
